Assay results from paper PMC4996973, “Topology and structure of an engineered human cohesin complex bound to Pds5B” (Nature Communications, 2016).
These are yes or no findings as the source states them, for the method shown. Sequences can lack the tags named with a protein.

Target: bonsai dimers (Smc1^B-10HIS, Smc3^B-FLAG) (human)
Test: pull-down; comparison of Pds5B binding to FLAG-immobilised bonsai dimers, trimers and tetramers (Supplementary Fig. 5); the Pds5B sample contained a very substoichiometric amount of Wapl; both purified

- binding: no binding
B1: Pds5B^10HIS (protein, UniProt Q9NTI5 1-1447)
chain: MAHSKTRTNDGKITYPPGVKEISDKISKEEMVRRLKMVVKTFMDMDQDSEEEKELYLNLALHLASDFFLKHPDKDVRLLVACCLADIFRIYAPEAPYTSPDKLKDIFMFITRQLKGLEDTKSPQFNRYFYLLENIAWVKSYNICFELEDSNEIFTQLYRTLFSVINNGHNQKVHMHMVDLMSSIICEGDTVSQELLDTVLVNLVPAHKNLNKQAYDLAKALLKRTAQAIEPYITNFFNQVLMLGKTSISDLSEHVFDLILELYNIDSHLLLSVLPQLEFKLKSNDNEERLQVVKLLAKMFGAKDSELASQNKPLWQCYLGRFNDIHVPIRLECVKFASHCLMNHPDLAKDLTEYLKVRSHDPEEAIRHDVIVSIVTAAKKDILLVNDHLLNFVRERTLDKRWRVRKEAMMGLAQIYKKYALQSAAGKDAAKQIAWIKDKLLHIYYQNSIDDRLLVERIFAQYMVPHNLETTERMKCLYYLYATLDLNAVKALNEMWKCQNLLRHQVKDLLDLIKQPKTDASVKAIFSKVMVITRNLPDPGKAQDFMKKFTQVLEDDEKIRKQLEVLVSPTCSCKQAEGCVREITKKLGNPKQPTNPFLEMIKFLLERIAPVHIDTESISALIKQVNKSIDGTADDEDEGVPTDQAIRAGLELLKVLSFTHPISFHSAETFESLLACLKMDDEKVAEAALQIFKNTGSKIEEDFPHIRSALLPVLHHKSKKGPPRQAKYAIHCIHAIFSSKETQFAQIFEPLHKSLDPSNLEHLITPLVTIGHIALLAPDQFAAPLKSLVATFIVKDLLMNDRLPGKKTTKLWVPDEEVSPETMVKIQAIKMMVRWLLGMKNNHSKSGTSTLRLLTTILHSDGDLTEQGKISKPDMSRLRLAAGSAIVKLAQEPCYHEIITLEQYQLCALAINDECYQVRQVFAQKLHKGLSRLRLPLEYMAICALCAKDPVKERRAHARQCLVKNINVRREYLKQHAAVSEKLLSLLPEYVVPYTIHLLAHDPDYVKVQDIEQLKDVKECLWFVLEILMAKNENNSHAFIRKMVENIKQTKDAQGPDDAKMNEKLYTVCDVAMNIIMSKSTTYSLESPKDPVLPARFFTQPDKNFSNTKNYLPPEMKSFFTPGKPKTTNVLGAVNKPLSSAGKQSQTKSSRMETVSNASSSSNPSSPGRIKGRLDSSEMDHSENEDYTMSSPLPGKKSDKRDDSDLVRSELEKPRGRKKTPVTEQEEKLGMDDLTKLVQEQKPKGSQRSRKRGHTASESDEQQWPEEKRLKEDILENEDEQNSPPKKGKRGRPPKPLGGGTPKEEPTMKTSKKGSKKKSGPPAPEEEEEEERQSGNTEQKSKSKQHRVSRRAQQRAESPESSAIESTQSTPQKGRGRPSKTPSPSQPKKNVRVGRSKQAATKENDSSEEVDVFQGSSPVDDIPQEETEEEEVSTVNVRRRSAKRERR
